The supplement of paper PMC7661543
The effect of the compound repeats well; differences between the knockouts mostly do not.

Test system: SKBR3
Experiment: relative cell number vs DMSO control (72 h) (% of DMSO); higher = less growth inhibition (more cells)
Procedure: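 QMAP-Seq: a pool of 5 breast cancer cell lines (ZR-75-1, SKBR3, HCC-38, MDA-MB-231, BT-20), each carrying 12 doxycycline-inducible Cas9 sgRNA perturbations (11 knockouts plus non-targeting sgNT), was treated with compounds for 72 h at four 10-fold doses (10 nM-10 uM or 1 nM-1 uM range). Barcodes were amplified and sequenced, and cell number was interpolated from 293T spike-in standard curves. The result is expressed as % of the median of DMSO wells. Two biological replicates.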

Cc1ccc(S(=O)(=O)OCC(=O)Nc2ccc(C(=O)O)c(O)c2)cc1
Details	relative cell number
sgRNA knockout: sgATF3, 10 nM	102
sgRNA knockout: sgATF3, 100 nM	78.3
sgRNA knockout: sgATF3, 1000 nM	104
sgRNA knockout: sgATF3, 10000 nM	106
sgRNA knockout: sgATF4, 10 nM	96.3
sgRNA knockout: sgATF4, 100 nM	88.8
sgRNA knockout: sgATF4, 1000 nM	86.5
sgRNA knockout: sgATF4, 10000 nM	91.6
sgRNA knockout: sgATF6, 10 nM	99.7
sgRNA knockout: sgATF6, 100 nM	92.8
sgRNA knockout: sgATF6, 1000 nM	84.4
sgRNA knockout: sgATF6, 10000 nM	100
sgRNA knockout: sgATG7, 10 nM	87.3
sgRNA knockout: sgATG7, 100 nM	103
sgRNA knockout: sgATG7, 1000 nM	80.7
sgRNA knockout: sgATG7, 10000 nM	95.8
sgRNA knockout: sgERN1, 10 nM	102
sgRNA knockout: sgERN1, 100 nM	81.6
sgRNA knockout: sgERN1, 1000 nM	83.4
sgRNA knockout: sgERN1, 10000 nM	85.1
sgRNA knockout: sgHSF1, 10 nM	65.5
sgRNA knockout: sgHSF1, 100 nM	86.8
sgRNA knockout: sgHSF1, 1000 nM	91.8
sgRNA knockout: sgHSF1, 10000 nM	87.8
sgRNA knockout: sgHSF2, 10 nM	102
sgRNA knockout: sgHSF2, 100 nM	93.9
sgRNA knockout: sgHSF2, 1000 nM	89.9
sgRNA knockout: sgHSF2, 10000 nM	99.9
sgRNA knockout: sgKEAP1, 10 nM	87.4
sgRNA knockout: sgKEAP1, 100 nM	72.8
sgRNA knockout: sgKEAP1, 1000 nM	85.3
sgRNA knockout: sgKEAP1, 10000 nM	95.2
sgRNA knockout: sgNFE2L2, 10 nM	90.1
sgRNA knockout: sgNFE2L2, 100 nM	110
sgRNA knockout: sgNFE2L2, 1000 nM	101
sgRNA knockout: sgNFE2L2, 10000 nM	84
sgRNA knockout: sgSLC35F2, 10 nM	89.3
sgRNA knockout: sgSLC35F2, 100 nM	100
sgRNA knockout: sgSLC35F2, 1000 nM	103
sgRNA knockout: sgSLC35F2, 10000 nM	84.8
sgRNA knockout: sgXBP1, 10 nM	115
sgRNA knockout: sgXBP1, 100 nM	88.4
sgRNA knockout: sgXBP1, 1000 nM	87.6
sgRNA knockout: sgXBP1, 10000 nM	117

O=C1CCC(N2C(=O)c3ccccc3C2=O)C(=O)N1 (configuration not stated) [Thalidomide]
Details	relative cell number
sgRNA knockout: sgATF3, 10 nM	102
sgRNA knockout: sgATF3, 100 nM	96.5
sgRNA knockout: sgATF3, 1000 nM	105
sgRNA knockout: sgATF3, 10000 nM	101
sgRNA knockout: sgATF4, 10 nM	92.8
sgRNA knockout: sgATF4, 100 nM	77.3
sgRNA knockout: sgATF4, 1000 nM	80
sgRNA knockout: sgATF4, 10000 nM	101
sgRNA knockout: sgATF6, 10 nM	78.6
sgRNA knockout: sgATF6, 100 nM	97.2
sgRNA knockout: sgATF6, 1000 nM	91
sgRNA knockout: sgATF6, 10000 nM	105
sgRNA knockout: sgATG7, 10 nM	97.2
sgRNA knockout: sgATG7, 100 nM	91.8
sgRNA knockout: sgATG7, 1000 nM	117
sgRNA knockout: sgATG7, 10000 nM	102
sgRNA knockout: sgERN1, 10 nM	117
sgRNA knockout: sgERN1, 100 nM	62.7
sgRNA knockout: sgERN1, 1000 nM	114
sgRNA knockout: sgERN1, 10000 nM	111
sgRNA knockout: sgHSF1, 10 nM	96.2
sgRNA knockout: sgHSF1, 100 nM	73.7
sgRNA knockout: sgHSF1, 1000 nM	80.9
sgRNA knockout: sgHSF1, 10000 nM	93
sgRNA knockout: sgHSF2, 10 nM	91.9
sgRNA knockout: sgHSF2, 100 nM	86.1
sgRNA knockout: sgHSF2, 1000 nM	93.8
sgRNA knockout: sgHSF2, 10000 nM	95.7
sgRNA knockout: sgKEAP1, 10 nM	98.3
sgRNA knockout: sgKEAP1, 100 nM	72.7
sgRNA knockout: sgKEAP1, 1000 nM	89.6
sgRNA knockout: sgKEAP1, 10000 nM	96.2
sgRNA knockout: sgNFE2L2, 10 nM	110
sgRNA knockout: sgNFE2L2, 100 nM	89.4
sgRNA knockout: sgNFE2L2, 1000 nM	115
sgRNA knockout: sgNFE2L2, 10000 nM	124
sgRNA knockout: sgSLC35F2, 10 nM	106
sgRNA knockout: sgSLC35F2, 100 nM	80.3
sgRNA knockout: sgSLC35F2, 1000 nM	97.1
sgRNA knockout: sgSLC35F2, 10000 nM	89.2
sgRNA knockout: sgXBP1, 10 nM	120
sgRNA knockout: sgXBP1, 100 nM	77.3
sgRNA knockout: sgXBP1, 1000 nM	130
sgRNA knockout: sgXBP1, 10000 nM	128

COc1cc(-n2c(=S)[nH]c3ccccc3c2=O)c(Cl)cc1Cl [Mdivi1]
Details	relative cell number
sgRNA knockout: sgATF3, 10 nM	96.2
sgRNA knockout: sgATF3, 100 nM	82.7
sgRNA knockout: sgATF3, 1000 nM	99.69
sgRNA knockout: sgATF3, 10000 nM	63.8
sgRNA knockout: sgATF4, 10 nM	86.88
sgRNA knockout: sgATF4, 100 nM	107
sgRNA knockout: sgATF4, 1000 nM	87.7
sgRNA knockout: sgATF4, 10000 nM	59.4
sgRNA knockout: sgATF6, 10 nM	82.8
sgRNA knockout: sgATF6, 100 nM	85.2
sgRNA knockout: sgATF6, 1000 nM	78.8
sgRNA knockout: sgATF6, 10000 nM	50.4
sgRNA knockout: sgATG7, 10 nM	77.8
sgRNA knockout: sgATG7, 100 nM	113
sgRNA knockout: sgATG7, 1000 nM	101
sgRNA knockout: sgATG7, 10000 nM	37.1
sgRNA knockout: sgERN1, 10 nM	79
sgRNA knockout: sgERN1, 100 nM	101
sgRNA knockout: sgERN1, 1000 nM	63.1
sgRNA knockout: sgERN1, 10000 nM	89.2
sgRNA knockout: sgHSF1, 10 nM	80.9
sgRNA knockout: sgHSF1, 100 nM	98.5
sgRNA knockout: sgHSF1, 1000 nM	68.2
sgRNA knockout: sgHSF1, 10000 nM	56.3
sgRNA knockout: sgHSF2, 10 nM	85.1
sgRNA knockout: sgHSF2, 100 nM	97.5
sgRNA knockout: sgHSF2, 1000 nM	84.5
sgRNA knockout: sgHSF2, 10000 nM	56.8
sgRNA knockout: sgKEAP1, 10 nM	96
sgRNA knockout: sgKEAP1, 100 nM	108
sgRNA knockout: sgKEAP1, 1000 nM	89.8
sgRNA knockout: sgKEAP1, 10000 nM	61.59
sgRNA knockout: sgNFE2L2, 10 nM	94
sgRNA knockout: sgNFE2L2, 100 nM	107
sgRNA knockout: sgNFE2L2, 1000 nM	101
sgRNA knockout: sgNFE2L2, 10000 nM	61.8
sgRNA knockout: sgSLC35F2, 10 nM	72
sgRNA knockout: sgSLC35F2, 100 nM	111
sgRNA knockout: sgSLC35F2, 1000 nM	87
sgRNA knockout: sgSLC35F2, 10000 nM	63.1
sgRNA knockout: sgXBP1, 10 nM	88.2
sgRNA knockout: sgXBP1, 100 nM	83.2
sgRNA knockout: sgXBP1, 1000 nM	97.3
sgRNA knockout: sgXBP1, 10000 nM	78.1
